Results are given in words; binding and its absence hold for the method and conditions named. In cells and extracts the contact can be indirect. Some results given as binding are weak or reduced against the parent protein; the word gives no strength. For some assays here: Where a sequence is shown, tags or fusion partners need not be part of it.
Assays:
[1] = biological target: T1, EGFP-KBP (kinesin-binding protein, KIAA1279) (human) (UniProt Q96EK5); test: co-IP; N2a cells cotransfected with EGFP-KBP and mCherry, mCh-CHMP2b or mCh-CHMP2b^intron5; lysis in 50 mM Tris, 150 mM NaCl, 1% Triton X-100, 0.5% deoxycholic acid; GFP-Trap agarose beads overnight at 4°C; blots probed with mCherry and GFP antibodies
T1 sequence: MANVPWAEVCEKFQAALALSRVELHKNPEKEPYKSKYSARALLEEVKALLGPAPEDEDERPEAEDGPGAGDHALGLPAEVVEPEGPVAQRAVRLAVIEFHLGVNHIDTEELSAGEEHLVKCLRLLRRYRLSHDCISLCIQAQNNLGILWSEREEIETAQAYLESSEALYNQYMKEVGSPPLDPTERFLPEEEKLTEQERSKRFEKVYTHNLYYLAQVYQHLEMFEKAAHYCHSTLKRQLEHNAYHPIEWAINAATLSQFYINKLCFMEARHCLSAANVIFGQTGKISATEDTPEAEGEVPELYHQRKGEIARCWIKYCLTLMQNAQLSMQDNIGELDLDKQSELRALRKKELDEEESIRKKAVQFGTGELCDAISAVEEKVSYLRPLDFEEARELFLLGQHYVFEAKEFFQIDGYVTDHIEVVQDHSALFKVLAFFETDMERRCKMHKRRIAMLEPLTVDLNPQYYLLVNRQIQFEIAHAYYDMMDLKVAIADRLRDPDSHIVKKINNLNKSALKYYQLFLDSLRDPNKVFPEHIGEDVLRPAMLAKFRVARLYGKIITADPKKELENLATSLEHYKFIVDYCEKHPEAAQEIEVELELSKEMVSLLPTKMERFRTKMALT

[2] = biological target: T2, endogenous kinesin-binding protein (KBP) of hippocampal neurons (rat (endogenous in hippocampal neurons)) (UniProt Q4G074); test: proximity ligation; 14 DIV hippocampal neurons transfected with mCherry, mCh-CHMP2b or mCh-CHMP2b^intron5, fixed; Duolink PLA with anti-KIAA1279 (rabbit) and anti-mCherry (mouse); puncta counted in the soma; 2 h vehicle or BIC/4AP
T2 sequence: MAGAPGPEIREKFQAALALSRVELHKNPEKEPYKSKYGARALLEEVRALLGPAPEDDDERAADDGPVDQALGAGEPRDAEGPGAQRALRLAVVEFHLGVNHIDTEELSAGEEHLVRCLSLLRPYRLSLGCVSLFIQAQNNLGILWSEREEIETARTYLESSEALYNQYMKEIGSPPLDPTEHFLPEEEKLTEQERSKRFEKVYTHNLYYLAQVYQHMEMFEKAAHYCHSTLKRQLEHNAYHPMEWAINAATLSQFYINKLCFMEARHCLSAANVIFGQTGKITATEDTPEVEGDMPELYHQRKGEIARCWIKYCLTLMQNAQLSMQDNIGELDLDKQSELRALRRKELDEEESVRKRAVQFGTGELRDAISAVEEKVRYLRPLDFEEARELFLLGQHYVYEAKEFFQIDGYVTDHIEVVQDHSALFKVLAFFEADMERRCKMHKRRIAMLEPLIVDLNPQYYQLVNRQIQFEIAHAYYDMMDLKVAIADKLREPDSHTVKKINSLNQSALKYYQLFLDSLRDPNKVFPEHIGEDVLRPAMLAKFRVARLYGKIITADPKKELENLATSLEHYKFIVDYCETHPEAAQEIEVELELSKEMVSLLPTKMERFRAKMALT

binding [1]: binds
binding [2]: binds
Substance: mCh-CHMP2b (WT charged multivesicular body protein 2b) (from UniProt Q9UQN3-1 1-213)

— publication PMC11871287
